Data on 40 compounds can be found in PubChem BioAssay AID493014 (National Center for Advancing Translational Sciences (NCATS), 2011).

A short description of this test: qHTS Assay to Find Inhibitors of Chronic Active B-Cell Receptor Signaling. As to conditions: ABC-DLBCL IkBa-CBG/CBR reporter, luminescence ratio (green luciferase fused to IkBa over red control in TMD8 lymphoma cells), 4 h. The gist of the method:
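Cell line TMD8 (human ABC DLBCL), stably expressing tet-inducible CBG68-IkBa fusion and CBR; IMDM/0.5% FBS; cpd up to 46 uM; dox induction, 4 h, 37C/5% CO2; dual luminescence; green/red ratio; MG132 control.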
Background: In qHTS, concentration-response curves come from the screen itself.

Where [1] appears, read: measured here: CBR red luminescence, cell number.
[2] abbreviates: measured here: IkBa-CBG green luminescence.

The AC50 is the concentration at which the activity in the assay is half-maximal.

The list shows a part of the results. These are further read-outs of the screen, such as a control signal, another cell line or another target. No call is given for them. Compounds called inactive in the main read-out are mostly missing here. The note in brackets gives the kind of curve behind each potency; many fits are weak.

As for `CC(CNC(=O)c1cc(COc2ccc3ncccc3c2)on1)c1ccccc1` (stereo not drawn), under setting [1], the AC50 is 35.5 µM [falling, single point].
Turning to `Cc1nnc(Nc2ccc(Cl)c(C(F)(F)F)c2)[nH]c1=O`, the AC50 under setting [1] is 3.55 µM [rising, full curve, poor fit].
Take `COc1ccc(-c2c(C)cc3oc(=O)cc(-c4ccccc4)c3c2C)cc1OC`: the AC50 under setting [1] is 4.11 µM [rising, partial curve, poor fit].
On to `FC(F)(F)c1cccc(Nc2ncnc3ccccc23)c1`, for which the AC50 runs as follows: under setting [1], 16.4 µM [rising, partial curve, poor fit]; under setting [2], 29.1 µM [falling, single point].
With `CN(O)/C=c1/ccc2c(n1)C(=O)C=CC=2`, the AC50 is 16.4 µM [rising, single point] under setting [1] and 18.4 µM [falling, single point] under setting [2].
`CCOC(=O)c1ccc(NC(=O)CN2C(=O)NC3(CCC(C)CC3)C2=O)cc1` (stereo not drawn): the AC50 under setting [1] was 35.5 µM [falling, single point].
As to `O=c1c2ccccc2nc(SCc2ccc(F)cc2Cl)n1CCCN1CCOCC1`, under setting [1], the AC50 is 6.31 µM [rising, single point].
As to `CCCN(C(=O)c1cc(S(=O)(=O)N2CCCCCC2)ccc1OC)C1CCS(=O)(=O)C1` (stereo not drawn), the AC50 under setting [1] was 14.6 µM [rising, partial curve, poor fit].
For the compound `CN1CCN(C(=O)/C(=C\c2cccs2)NC(=O)c2ccccc2)CC1`, the AC50 under setting [1] was 12.6 µM [rising, partial curve, poor fit].
In the case of `CCOc1ccccc1C(=O)NN1C(=O)C2CCCCC2C1=O` (stereo not drawn), the AC50 under setting [1] was 0.13 µM [rising, full curve, poor fit].
In the case of `CCc1c(C(=O)Nc2nnc(C3CC3)s2)csc1C`, under setting [1], the AC50 is 29.1 µM [rising, single point].
For the compound `Cc1sc2nc(CSc3ccccc3)nc(N3CCOCC3)c2c1C`, under setting [1], the AC50 was 5.8 µM [rising, full curve].
The same measure, in the same setting: under `CCOc1cc(/C=N/NC(=O)Cn2nc([N+](=O)[O-])cc2C)cc(Br)c1OCc1ccccc1C` stands 4.61 µM [rising, single point]; under `O=C(NC(=S)Nc1cnc2ccccc2c1)c1ccccc1`, 10 µM [falling, partial curve, poor fit]; under `Cc1ccc(N(O)C(=O)OCCNC(=O)Nc2ccccc2)cc1`, 7.08 µM [rising, partial curve, poor fit].
`COc1ccccc1CNC(=O)COc1ccc(Br)c(C)c1`: the AC50 under setting [1] was 35.5 µM [falling, single point].
Turning to `COc1ccc(C(=O)NNC(=O)c2snnc2C)cc1`, the AC50 under setting [1] was 8.91 µM [falling, partial curve, poor fit].
Same read-out and setting: with `N#CC(C#N)=C1NC2(CCCCC2)Cc2ccccc21` the figure was 15.8 µM [rising, single point]; with `Cc1cccc(NC(=O)CN2C(=S)NC(C)(C)CC2C)c1` (stereo not drawn), 18.4 µM [falling, single point].
As to `Cc1c(Cl)cccc1NC(=O)C1COc2ccccc2O1` (stereo not drawn), the AC50 under setting [1] is 14.1 µM [rising, partial curve, poor fit].
As to `COc1ccc(CCNC(=O)c2ccc(CNS(=O)(=O)c3ccccc3)cc2)cc1OC`, under setting [1], the AC50 was 25.9 µM [rising, partial curve, poor fit].
Still for that read-out and setting: under `COc1ccc(CCNCC2C(Oc3ccc(Cl)cc3)C(=O)N2c2ccccc2C)cc1OC` (stereo not drawn) stands 17.8 µM [falling, single point].
For `C=CCOc1ccnc(-c2ccccc2)n1`, the AC50 under setting [1] is 0.447 µM [rising, full curve, poor fit].
Same read-out and setting: with `COc1ccc(OC)c2[nH]c(=O)c(CCNC(=O)c3ccc4c(c3)OCO4)cc12` the figure was 0.891 µM [rising, partial curve, poor fit].
Take `O=C(Nc1ccccc1F)c1ccc(C(=O)c2ccccc2)cc1`: under setting [1], the half-maximal activity concentration (AC50) is 5.01 µM [falling, partial curve, poor fit].
In the case of `O=C(Nc1cccc(-c2ccc(N3CCCCC3)nn2)c1)C(F)(F)F`, the AC50 under setting [1] is 6.31 µM [falling, partial curve, poor fit].
For the compound `O=C(Cn1nnc(-c2ccccc2-n2cnnn2)n1)c1ccccc1`, the AC50 under setting [1] was 3.66 µM [falling, full curve, poor fit].
In the case of `C/C(=N/NC(=O)c1ccco1)c1cccc(NC(=O)c2ccc(C)s2)c1`, the AC50 under setting [1] was 29.1 µM [falling, single point].
Regarding `COc1cccc(C(=O)OC2CCN(C)CC2)c1`, the AC50 under setting [1] is 35.5 µM [rising, single point].
In the case of `CCOC(=O)C1=C(C)N(c2ccccc2)C(=O)NC1c1cccc([N+](=O)[O-])c1` (stereo not drawn), the AC50 under setting [1] is 18.4 µM [falling, single point].
On to `Cc1ccccc1Nc1c(-c2ccncc2)nc2ccc(Cl)cn12`, for which the AC50 was 11.2 µM [falling, single point] under setting [1] and 14.1 µM [rising, partial curve, poor fit] under setting [2].
`O=C(NCCC1=CCCCC1)C1CCN(C(=O)Nc2ccccc2)CC1`: the AC50 under setting [1] was 6.51 µM [rising, single point].
Still for that read-out and setting: under `Cc1ccc(/C=C2/SC(=S)N(CCC(=O)N3CCN(C)CC3)C2=O)cc1` stands 11.2 µM [falling, partial curve, poor fit]; under `Cc1ccc(NNC(=O)c2ccno2)c(C)c1`, 0.2 µM [rising, full curve, poor fit].
In the case of `O=C(COC(=O)c1ccc(Cl)nc1)NCc1cccs1`, under setting [1], the AC50 was 3.98 µM [rising, full curve, poor fit].
Same read-out and setting: under `O=C(O)c1ccc(S(=O)(=O)c2ccc3c(c2)C(=O)N(NC(=O)c2cccnc2)C3=O)cc1` stands 11.2 µM [falling, single point]; under `O=C(Nc1ccc(Cl)c([N+](=O)[O-])c1)ONC1=NCCCCC1`, 3.16 µM [falling, partial curve, poor fit].
Regarding `CC1(C)CC(=O)CC2(C1)NCC(c1ccccc1)c1c2[nH]c2ccccc12` (stereo not drawn), the AC50 under setting [1] is 35.5 µM [falling, single point].
Consider `O=C(COc1cccc2ccccc12)N1CCN(c2ccccc2)CC1`, for which the AC50 under setting [1] was 18.4 µM [falling, single point].
Still for that read-out and setting: with `COc1ccccc1NS(=O)(=O)c1cccc(NC(=O)Nc2ccc(Cl)cc2)c1` the figure was 22.4 µM [falling, single point].
